Data reported in article PMC2973837.
Results are given in words; binding and its absence hold for the method and conditions named. Binding seen in cells or lysates may run through a third protein. Some results given as binding are weak or reduced against the parent protein; the word gives no strength. Where a sequence is shown, tags or fusion partners need not be part of it.

Target: T1, HA-SRFR1 (SUPPRESSOR OF rps4-RLD1, HA-tagged, genomic clone) (Arabidopsis thaliana) (UniProt F4JS25)
T1 sequence: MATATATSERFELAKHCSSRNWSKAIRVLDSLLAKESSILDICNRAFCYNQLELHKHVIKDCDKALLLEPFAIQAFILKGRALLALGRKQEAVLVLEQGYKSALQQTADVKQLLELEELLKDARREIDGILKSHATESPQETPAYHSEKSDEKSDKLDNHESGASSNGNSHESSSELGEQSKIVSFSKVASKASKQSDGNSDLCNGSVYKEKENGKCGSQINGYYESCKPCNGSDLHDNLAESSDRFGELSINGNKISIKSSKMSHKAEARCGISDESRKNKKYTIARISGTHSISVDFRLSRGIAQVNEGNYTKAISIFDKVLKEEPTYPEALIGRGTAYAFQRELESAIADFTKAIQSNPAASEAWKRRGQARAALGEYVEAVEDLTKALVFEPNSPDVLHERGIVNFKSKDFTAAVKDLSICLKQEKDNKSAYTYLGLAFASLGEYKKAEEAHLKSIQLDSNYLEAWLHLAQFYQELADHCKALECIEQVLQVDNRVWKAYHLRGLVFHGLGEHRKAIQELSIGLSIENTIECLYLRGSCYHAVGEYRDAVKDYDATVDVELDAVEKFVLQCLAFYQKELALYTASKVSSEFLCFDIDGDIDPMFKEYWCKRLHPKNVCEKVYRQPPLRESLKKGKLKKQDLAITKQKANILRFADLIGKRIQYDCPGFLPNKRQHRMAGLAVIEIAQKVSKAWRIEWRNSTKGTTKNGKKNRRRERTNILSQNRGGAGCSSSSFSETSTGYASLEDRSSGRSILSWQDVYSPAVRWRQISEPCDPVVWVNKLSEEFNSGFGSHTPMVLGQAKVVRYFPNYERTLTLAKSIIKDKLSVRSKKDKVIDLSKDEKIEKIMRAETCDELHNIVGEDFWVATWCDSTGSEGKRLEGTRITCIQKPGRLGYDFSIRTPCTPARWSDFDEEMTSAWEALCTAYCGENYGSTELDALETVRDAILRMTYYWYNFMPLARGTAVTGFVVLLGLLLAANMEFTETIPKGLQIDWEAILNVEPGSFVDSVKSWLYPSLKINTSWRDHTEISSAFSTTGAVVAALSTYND
Assay: co-IP; microsomal fraction (100,000 x g pellet, resuspended in buffer H) of HA-SRFR1 transgenic N. benthamiana leaves 48 h after agroinfiltration of the Myc-tagged proteins; 1% Igepal CA-630; overnight with anti-HA or anti-Myc agarose beads; immunoblot

B1: Myc-RPS4 (genomic RPS4, Myc-tagged) (protein, UniProt Q9XGM3 1-1217)
chain: METSSISTVEDKPPQHQVFINFRGADLRRRFVSHLVTALKLNNINVFIDDYEDRGQPLDVLLKRIEESKIVLAIFSGNYTESVWCVRELEKIKDCTDEGTLVAIPIFYKLEPSTVRDLKGKFGDRFRSMAKGDERKKKWKEAFNLIPNIMGIIIDKKSVESEKVNEIVKAVKTALTGIPPEGSHNAVVGALGNSNAGTSSGDKKHETFGNEQRLKDLEEKLDRDKYKGTRIIGVVGMPGIGKTTLLKELYKTWQGKFSRHALIDQIRVKSKHLELDRLPQMLLGELSKLNHPHVDNLKDPYSQLHERKVLVVLDDVSKREQIDALREILDWIKEGKEGSRVVIATSDMSLTNGLVDDTYMVQNLNHRDSLQLFHYHAFIDDQANPQKKDFMKLSEGFVHYARGHPLALKVLGGELNKKSMDHWNSKMKKLAQSPSPNIVSVFQVSYDELTTAQKDAFLDIACFRSQDKDYVESLLASSDLGSAEAMSAVKSLTDKFLINTCDGRVEMHDLLYKFSREVDLKASNQDGSRQRRLWLHQHIIKGGIINVLQNKMKAANVRGIFLDLSEVEDETSLDRDHFINMGNLRYLKFYNSHCPQECKTNNKINIPDKLKLPLKEVRCLHWLKFPLETLPNDFNPINLVDLKLPYSEMEQLWEGDKDTPCLRWVDLNHSSKLCSLSGLSKAEKLQRLNLEGCTTLKAFPHDMKKMKMLAFLNLKGCTSLESLPEMNLISLKTLTLSGCSTFKEFPLISDNIETLYLDGTAISQLPMNMEKLQRLVVLNMKDCKMLEEIPGRVGELKALQELILSDCLNLKIFPEIDISFLNILLLDGTAIEVMPQLPSVQYLCLSRNAKISCLPVGISQLSQLKWLDLKYCTSLTSVPEFPPNLQCLDAHGCSSLKTVSKPLARIMPTEQNHSTFIFTNCENLEQAAKEEITSYAQRKCQLLSYARKRYNGGLVSESLFSTCFPGCEVPSWFCHETVGSELEVKLLPHWHDKKLAGIALCAVVSCLDPQDQVSRLSVTCTFKVKDEDKSWVAYTCPVGSWTRHGGGKDKIELDHVFIGYTSCPHTIKCHEEGNSDECNPTEASLKFTVTGGTSENGKYKVLKCGLSLVYAKDKDKNSALETKYDMLIGKSFQETSEGVDGRVKKTKGKYVMPVEKNFQETTEGVDGRVNKKKKTRMDNGRPKKKQRSGRDDNQTRMQVELQEGNINSVIMHTVKNF
- binding: binds
